Laboratory results reported in the supplement of paper PMC12823440, “Inhibitors supercharge kinase turnover through native proteolytic circuits” (Nature, 2025).
The other results are listed elsewhere or left out. Hit calls seldom repeat between salt and free forms of one compound.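 Kinases were expressed as nanoluciferase fusions in K562 cells and luminescence was read every 4 h between 2 and 18 h as percent of control, DMSO set to 100% and a positive control to 0%. A time point counts as decreased when the signal drops significantly (2 sigma). The hit call is the authors' own, does not follow from the count of time points alone, and its rule is not shown.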

Sequences of proteins named here, by UniProt entry; tags and fusion partners are left off. A change or cut given only in a name is not applied to a line headed by its entry.
UniProt P07949, whole entry, looked up: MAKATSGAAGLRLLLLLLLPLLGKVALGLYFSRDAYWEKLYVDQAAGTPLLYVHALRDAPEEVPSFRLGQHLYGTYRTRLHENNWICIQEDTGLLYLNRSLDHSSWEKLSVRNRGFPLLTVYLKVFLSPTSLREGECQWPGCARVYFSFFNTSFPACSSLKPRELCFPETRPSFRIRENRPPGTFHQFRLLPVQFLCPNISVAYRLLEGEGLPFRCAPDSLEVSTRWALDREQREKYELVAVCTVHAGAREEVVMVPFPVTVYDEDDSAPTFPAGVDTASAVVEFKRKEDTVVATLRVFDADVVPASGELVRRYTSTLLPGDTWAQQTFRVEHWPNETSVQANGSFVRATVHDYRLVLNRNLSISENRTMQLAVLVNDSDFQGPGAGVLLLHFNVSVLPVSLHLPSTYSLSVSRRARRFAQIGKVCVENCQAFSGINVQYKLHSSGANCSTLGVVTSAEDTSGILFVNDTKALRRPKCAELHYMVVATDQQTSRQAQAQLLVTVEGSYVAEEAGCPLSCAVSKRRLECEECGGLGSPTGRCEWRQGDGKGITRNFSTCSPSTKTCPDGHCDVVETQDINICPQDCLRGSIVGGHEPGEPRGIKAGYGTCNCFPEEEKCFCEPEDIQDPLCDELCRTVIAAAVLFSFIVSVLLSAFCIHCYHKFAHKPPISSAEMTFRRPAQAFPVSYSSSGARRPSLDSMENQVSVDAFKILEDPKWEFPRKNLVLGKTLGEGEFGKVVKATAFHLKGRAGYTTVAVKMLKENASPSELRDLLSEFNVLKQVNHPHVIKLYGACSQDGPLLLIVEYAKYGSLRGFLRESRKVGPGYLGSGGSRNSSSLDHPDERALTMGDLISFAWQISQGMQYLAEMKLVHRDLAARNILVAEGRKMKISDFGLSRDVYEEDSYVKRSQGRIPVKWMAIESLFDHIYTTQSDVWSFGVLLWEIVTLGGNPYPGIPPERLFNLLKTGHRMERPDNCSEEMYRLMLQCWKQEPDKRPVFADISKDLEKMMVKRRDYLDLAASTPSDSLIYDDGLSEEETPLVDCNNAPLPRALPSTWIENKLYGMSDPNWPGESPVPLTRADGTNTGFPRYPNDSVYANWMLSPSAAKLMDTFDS
UniProt P07949, whole entry M918T, looked up: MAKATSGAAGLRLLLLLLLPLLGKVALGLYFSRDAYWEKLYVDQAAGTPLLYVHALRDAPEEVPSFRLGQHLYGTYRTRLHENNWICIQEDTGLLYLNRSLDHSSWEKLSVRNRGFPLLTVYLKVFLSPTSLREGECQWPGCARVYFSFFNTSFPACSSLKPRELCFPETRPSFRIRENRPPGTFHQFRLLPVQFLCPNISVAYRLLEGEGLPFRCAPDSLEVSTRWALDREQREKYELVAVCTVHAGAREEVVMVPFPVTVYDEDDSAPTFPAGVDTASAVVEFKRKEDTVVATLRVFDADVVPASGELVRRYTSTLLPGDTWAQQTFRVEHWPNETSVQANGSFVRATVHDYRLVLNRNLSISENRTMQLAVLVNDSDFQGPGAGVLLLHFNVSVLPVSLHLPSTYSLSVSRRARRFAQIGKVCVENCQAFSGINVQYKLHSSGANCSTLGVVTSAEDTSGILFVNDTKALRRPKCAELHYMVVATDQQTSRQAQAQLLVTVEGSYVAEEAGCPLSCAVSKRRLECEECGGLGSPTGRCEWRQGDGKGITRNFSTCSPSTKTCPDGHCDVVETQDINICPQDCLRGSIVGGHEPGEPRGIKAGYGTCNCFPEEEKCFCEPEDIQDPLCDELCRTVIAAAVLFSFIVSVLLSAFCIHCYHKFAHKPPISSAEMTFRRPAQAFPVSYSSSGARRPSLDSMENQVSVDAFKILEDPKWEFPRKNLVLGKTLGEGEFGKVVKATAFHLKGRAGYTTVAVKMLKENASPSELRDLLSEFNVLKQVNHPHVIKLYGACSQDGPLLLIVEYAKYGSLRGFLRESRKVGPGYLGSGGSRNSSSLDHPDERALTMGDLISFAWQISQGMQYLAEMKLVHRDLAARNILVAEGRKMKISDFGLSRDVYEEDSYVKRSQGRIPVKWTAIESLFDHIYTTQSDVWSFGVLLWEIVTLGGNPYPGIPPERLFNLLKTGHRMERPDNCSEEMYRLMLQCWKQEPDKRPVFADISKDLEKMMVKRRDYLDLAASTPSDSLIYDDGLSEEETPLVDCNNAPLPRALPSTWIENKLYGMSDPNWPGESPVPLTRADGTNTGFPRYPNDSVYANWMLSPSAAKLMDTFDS
UniProt Q9BRS2: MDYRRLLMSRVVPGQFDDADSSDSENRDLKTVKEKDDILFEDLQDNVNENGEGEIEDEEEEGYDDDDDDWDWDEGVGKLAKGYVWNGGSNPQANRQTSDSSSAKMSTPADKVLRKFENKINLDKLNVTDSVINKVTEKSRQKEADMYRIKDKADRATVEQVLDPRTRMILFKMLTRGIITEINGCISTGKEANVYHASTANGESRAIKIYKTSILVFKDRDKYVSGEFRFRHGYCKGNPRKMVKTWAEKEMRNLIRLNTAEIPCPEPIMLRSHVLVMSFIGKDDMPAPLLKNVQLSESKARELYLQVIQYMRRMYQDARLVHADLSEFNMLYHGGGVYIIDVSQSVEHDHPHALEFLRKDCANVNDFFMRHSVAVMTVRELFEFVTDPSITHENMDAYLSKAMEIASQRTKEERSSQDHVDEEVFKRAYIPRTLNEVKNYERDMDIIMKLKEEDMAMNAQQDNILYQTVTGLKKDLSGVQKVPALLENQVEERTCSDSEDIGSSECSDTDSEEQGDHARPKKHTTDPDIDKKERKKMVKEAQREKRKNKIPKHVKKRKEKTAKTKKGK
UniProt Q13546: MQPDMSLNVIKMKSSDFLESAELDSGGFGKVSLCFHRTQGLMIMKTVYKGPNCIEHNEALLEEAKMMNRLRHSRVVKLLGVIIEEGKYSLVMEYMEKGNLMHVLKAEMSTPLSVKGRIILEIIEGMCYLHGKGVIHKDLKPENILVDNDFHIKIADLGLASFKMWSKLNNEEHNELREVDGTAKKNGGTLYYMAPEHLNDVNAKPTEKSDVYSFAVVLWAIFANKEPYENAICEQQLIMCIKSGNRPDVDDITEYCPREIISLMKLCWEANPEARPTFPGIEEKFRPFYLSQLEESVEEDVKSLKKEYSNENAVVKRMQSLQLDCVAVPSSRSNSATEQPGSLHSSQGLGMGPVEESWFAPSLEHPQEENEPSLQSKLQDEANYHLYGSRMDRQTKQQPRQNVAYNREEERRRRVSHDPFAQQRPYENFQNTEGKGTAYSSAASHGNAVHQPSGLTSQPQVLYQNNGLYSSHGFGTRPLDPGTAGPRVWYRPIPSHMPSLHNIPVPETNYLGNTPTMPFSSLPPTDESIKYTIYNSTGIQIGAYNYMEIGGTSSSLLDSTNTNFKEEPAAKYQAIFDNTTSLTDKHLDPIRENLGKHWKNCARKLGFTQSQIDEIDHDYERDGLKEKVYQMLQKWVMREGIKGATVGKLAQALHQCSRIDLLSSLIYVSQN
UniProt Q15418, whole entry: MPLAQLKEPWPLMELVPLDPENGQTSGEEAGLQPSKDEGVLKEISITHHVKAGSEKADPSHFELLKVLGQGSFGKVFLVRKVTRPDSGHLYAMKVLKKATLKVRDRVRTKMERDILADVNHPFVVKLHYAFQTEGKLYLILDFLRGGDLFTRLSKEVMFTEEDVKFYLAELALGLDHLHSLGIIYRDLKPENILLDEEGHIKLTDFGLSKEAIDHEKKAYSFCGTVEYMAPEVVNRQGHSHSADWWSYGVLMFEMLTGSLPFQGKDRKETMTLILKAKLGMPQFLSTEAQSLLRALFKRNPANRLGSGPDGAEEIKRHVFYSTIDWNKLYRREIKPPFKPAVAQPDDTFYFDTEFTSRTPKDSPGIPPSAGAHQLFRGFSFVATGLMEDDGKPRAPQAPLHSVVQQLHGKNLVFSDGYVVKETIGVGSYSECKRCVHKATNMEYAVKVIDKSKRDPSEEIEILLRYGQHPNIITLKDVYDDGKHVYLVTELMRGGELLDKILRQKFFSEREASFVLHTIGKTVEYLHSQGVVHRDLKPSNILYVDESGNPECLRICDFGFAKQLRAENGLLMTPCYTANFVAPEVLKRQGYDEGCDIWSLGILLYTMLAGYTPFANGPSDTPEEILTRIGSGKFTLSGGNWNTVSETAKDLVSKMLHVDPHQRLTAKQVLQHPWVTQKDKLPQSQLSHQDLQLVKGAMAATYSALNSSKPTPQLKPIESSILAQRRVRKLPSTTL
UniProt Q9NYA1, whole entry: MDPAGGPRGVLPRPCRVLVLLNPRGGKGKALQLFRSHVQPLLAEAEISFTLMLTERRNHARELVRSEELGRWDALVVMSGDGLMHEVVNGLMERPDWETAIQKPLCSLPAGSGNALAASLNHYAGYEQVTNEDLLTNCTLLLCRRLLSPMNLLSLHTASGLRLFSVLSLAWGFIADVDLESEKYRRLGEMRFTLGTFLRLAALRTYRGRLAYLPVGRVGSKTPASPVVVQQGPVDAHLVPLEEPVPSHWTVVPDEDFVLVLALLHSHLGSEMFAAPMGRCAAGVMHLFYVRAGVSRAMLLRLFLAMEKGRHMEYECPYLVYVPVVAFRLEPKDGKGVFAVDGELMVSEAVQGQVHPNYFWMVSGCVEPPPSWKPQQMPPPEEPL
UniProt Q9Y6E0: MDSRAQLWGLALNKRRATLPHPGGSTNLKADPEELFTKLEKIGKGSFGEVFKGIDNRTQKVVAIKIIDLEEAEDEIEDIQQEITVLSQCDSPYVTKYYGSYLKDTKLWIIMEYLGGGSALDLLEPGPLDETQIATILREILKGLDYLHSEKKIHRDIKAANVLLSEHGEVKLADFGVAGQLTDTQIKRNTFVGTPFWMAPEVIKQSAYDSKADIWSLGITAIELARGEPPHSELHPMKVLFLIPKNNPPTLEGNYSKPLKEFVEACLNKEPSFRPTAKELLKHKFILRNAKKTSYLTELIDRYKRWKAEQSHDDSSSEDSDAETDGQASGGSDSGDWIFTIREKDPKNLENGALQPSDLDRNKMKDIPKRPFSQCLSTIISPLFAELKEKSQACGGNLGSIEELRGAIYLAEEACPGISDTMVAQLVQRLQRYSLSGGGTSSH
UniProt Q6PHR2: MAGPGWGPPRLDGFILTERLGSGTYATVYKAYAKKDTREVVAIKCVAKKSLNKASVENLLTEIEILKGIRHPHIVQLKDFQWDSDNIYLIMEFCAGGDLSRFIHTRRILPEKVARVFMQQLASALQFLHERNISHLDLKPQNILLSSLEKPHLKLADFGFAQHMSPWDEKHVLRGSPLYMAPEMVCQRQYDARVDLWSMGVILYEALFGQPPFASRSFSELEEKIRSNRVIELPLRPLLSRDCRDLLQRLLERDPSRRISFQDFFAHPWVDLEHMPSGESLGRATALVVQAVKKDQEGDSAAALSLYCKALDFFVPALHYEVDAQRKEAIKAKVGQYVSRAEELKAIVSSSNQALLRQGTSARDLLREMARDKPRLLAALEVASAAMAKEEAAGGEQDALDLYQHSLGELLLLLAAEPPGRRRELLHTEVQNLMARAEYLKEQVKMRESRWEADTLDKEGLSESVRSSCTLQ

Columns and labels:
Experiment in all cases: number of time points (of 5) at which kinase-Nluc abundance scored as decreased, DMSO-normalised (count); higher = more persistent destabilization
Conditions in all cases: K562; 2-18 h
PRKCA = PRKCA (UniProt P17252)
PTK2 = PTK2 (UniProt Q05397)
PTK2B = PTK2B (UniProt Q14289)
RAF1 = RAF1 (UniProt P04049)
[1] = target: RAF1_S257L (clone: RAF1_mut) (UniProt P04049)
RET = RET (UniProt P07949)
[2] = target: RET_M918T (clone: RET_mut) (UniProt P07949)
RIOK1 = RIOK1 (UniProt Q9BRS2)
RIPK1 = RIPK1 (UniProt Q13546)
RIPK2 = RIPK2 (UniProt O43353)
ROR2 = ROR2 (UniProt Q01974)
RPS6KA1 = RPS6KA1 (UniProt Q15418)
SPHK1 = SPHK1 (UniProt Q9NYA1)
SRC = SRC (UniProt P12931)
STK24 = STK24 (UniProt Q9Y6E0)
STK38 = STK38 (UniProt Q15208)
SYK = SYK (UniProt P43405)
TEC = TEC (UniProt P42680)
TYK2 = TYK2 (UniProt P29597)
ULK3 = ULK3 (UniProt Q6PHR2)

Structure (SMILES)	number of time points (PRKCA)	number of time points (PTK2)	number of time points (PTK2B)	number of time points (RAF1)	number of time points [1]	number of time points (RET)	number of time points [2]	number of time points (RIOK1)	number of time points (RIPK1)	number of time points (RIPK2)	number of time points (ROR2)	number of time points (RPS6KA1)	number of time points (SPHK1)	number of time points (SRC)	number of time points (STK24)	number of time points (STK38)	number of time points (SYK)	number of time points (TEC)	number of time points (TYK2)	number of time points (ULK3)
O=[N+]([O-])c1ccc(Sc2cccc[n+]2[O-])c2nonc12 (2.5 µM)	0	0	0	0	0	0	0	0	0	0	0	0	0	0	0	0	0	0	0	0
Cc1cc(C(C)Nc2ccccc2)c2nc(N3CCOCC3)cc(=O)n2c1 (stereo not given) (10 µM)	0	0	0	0	0	0	0	0	0	0	0	0	0	0	0	0	0	0	0	0
COc1c(C)c(C(=O)c2ccc(N)c(C(=O)O)c2)n2ccccc12 (10 µM)	0	0	0	0	0	0	0	0	0	0	0	0	0	0	0	0	0	0	0	0
COC(=O)[C@@]1(C)CC[C@]2(C(=O)O)CC[C@]3(C)C(=CC[C@@H]4[C@@]5(C)C[C@H](O)[C@H](O[C@@H]6OC[C@@H](O[C@@H]7O[C@H](CO)[C@@H](O)[C@H](O)[C@H]7O)[C@H](O)[C@H]6O)[C@@](C)(CO)[C@@H]5CC[C@]43C)[C@@H]2C1 [Esculentoside A] (10 µM)	0	0	0	0	0	0	0	0	0	0	0	0	0	0	0	0	0	0	0	0
O=C(O)c1cc(O)c2c(c1)[C@@H]([C@H]1c3cc(C(=O)O)cc(O)c3C(=O)c3c(O[C@@H]4O[C@H](CO)[C@@H](O)[C@H](O)[C@H]4O)cccc31)c1cccc(O[C@@H]3O[C@H](CO)[C@@H](O)[C@H](O)[C@H]3O)c1C2=O [Sennoside B] (2.5 µM)	0	0	0	0	0	0	0	0	0	0	0	0	0	0	0	0	0	0	0	0
C[C@@H]1COCCN1c1cc(C2([S@](C)(=N)=O)CC2)nc(-c2cc[nH]c3nccc2-3)n1 [Ceralasertib] (2.5 µM)	0	0	0	0	0	0	0	0	0	0	0	0	0	0	0	0	0	0	0	0
O=c1[nH]ccc2cc(OC3CCNCC3)ccc12 (10 µM)	0	0	0	0	0	0	0	0	0	0	0	0	0	0	0	0	0	0	0	0
C[C@@H]1COCCN1c1cc(=O)n2c(n1)N(Cc1cncc(Cl)c1)[C@H](C(F)(F)F)CC2 (10 µM)	0	1	0	0	0	0	0	0	2	0	0	0	0	0	0	0	0	0	0	0
CC(C)Oc1ccc(-c2cnc3c(-c4ccnc5ccccc45)cnn3c2)cc1 (10 µM)	0	0	0	0	0	0	0	0	0	0	0	0	0	0	0	0	0	0	0	0
O=C(Nc1ccc(Cl)cc1)C1CCCN(C(=O)c2cccc(-c3ccco3)c2)C1 (stereo not given) (2.5 µM)	0	0	0	0	0	0	0	0	0	0	0	0	0	0	0	0	0	0	0	0
COC(=O)N[C@@H](C)CNc1nccc(-c2cn(C(C)C)nc2-c2cc(Cl)cc(NS(C)(=O)=O)c2F)n1 [Encorafenib] (10 µM)	0	0	0	0	0	0	0	0	0	0	0	0	0	0	0	0	0	0	0	0
CC1=C(C(=O)Nc2ccc3[nH]ncc3c2)C(c2ccc(F)cc2)NC(=O)N1 (stereo not given) (10 µM)	0	0	0	0	0	0	0	0	0	0	0	0	0	0	0	0	0	0	0	0

Limited to number of time points (RET), number of time points (PTK2B) and number of time points [1], for 2 of the compounds above:
Structure (SMILES),number of time points (RET),number of time points (PTK2B),number of time points [1]
C[C@@H]1COCCN1c1cc(C2([S@](C)(=N)=O)CC2)nc(-c2cc[nH]c3nccc2-3)n1 [Ceralasertib] (2.5 µM),0,0,0
O=c1[nH]ccc2cc(OC3CCNCC3)ccc12 (10 µM),0,0,0
